Test results published in paper PMC4683056.
No constants are given. Whether binding was seen depends on the method and setting. For part of these data: Binding seen in cells or lysates may run through a third protein. Some binding calls cover weakened binding; strength is not graded here. For part of these data: Sequences can lack the tags named with a protein.

Sequences of proteins named here, by UniProt entry; tags and fusion partners are left off.
UniProt Q8IZD2: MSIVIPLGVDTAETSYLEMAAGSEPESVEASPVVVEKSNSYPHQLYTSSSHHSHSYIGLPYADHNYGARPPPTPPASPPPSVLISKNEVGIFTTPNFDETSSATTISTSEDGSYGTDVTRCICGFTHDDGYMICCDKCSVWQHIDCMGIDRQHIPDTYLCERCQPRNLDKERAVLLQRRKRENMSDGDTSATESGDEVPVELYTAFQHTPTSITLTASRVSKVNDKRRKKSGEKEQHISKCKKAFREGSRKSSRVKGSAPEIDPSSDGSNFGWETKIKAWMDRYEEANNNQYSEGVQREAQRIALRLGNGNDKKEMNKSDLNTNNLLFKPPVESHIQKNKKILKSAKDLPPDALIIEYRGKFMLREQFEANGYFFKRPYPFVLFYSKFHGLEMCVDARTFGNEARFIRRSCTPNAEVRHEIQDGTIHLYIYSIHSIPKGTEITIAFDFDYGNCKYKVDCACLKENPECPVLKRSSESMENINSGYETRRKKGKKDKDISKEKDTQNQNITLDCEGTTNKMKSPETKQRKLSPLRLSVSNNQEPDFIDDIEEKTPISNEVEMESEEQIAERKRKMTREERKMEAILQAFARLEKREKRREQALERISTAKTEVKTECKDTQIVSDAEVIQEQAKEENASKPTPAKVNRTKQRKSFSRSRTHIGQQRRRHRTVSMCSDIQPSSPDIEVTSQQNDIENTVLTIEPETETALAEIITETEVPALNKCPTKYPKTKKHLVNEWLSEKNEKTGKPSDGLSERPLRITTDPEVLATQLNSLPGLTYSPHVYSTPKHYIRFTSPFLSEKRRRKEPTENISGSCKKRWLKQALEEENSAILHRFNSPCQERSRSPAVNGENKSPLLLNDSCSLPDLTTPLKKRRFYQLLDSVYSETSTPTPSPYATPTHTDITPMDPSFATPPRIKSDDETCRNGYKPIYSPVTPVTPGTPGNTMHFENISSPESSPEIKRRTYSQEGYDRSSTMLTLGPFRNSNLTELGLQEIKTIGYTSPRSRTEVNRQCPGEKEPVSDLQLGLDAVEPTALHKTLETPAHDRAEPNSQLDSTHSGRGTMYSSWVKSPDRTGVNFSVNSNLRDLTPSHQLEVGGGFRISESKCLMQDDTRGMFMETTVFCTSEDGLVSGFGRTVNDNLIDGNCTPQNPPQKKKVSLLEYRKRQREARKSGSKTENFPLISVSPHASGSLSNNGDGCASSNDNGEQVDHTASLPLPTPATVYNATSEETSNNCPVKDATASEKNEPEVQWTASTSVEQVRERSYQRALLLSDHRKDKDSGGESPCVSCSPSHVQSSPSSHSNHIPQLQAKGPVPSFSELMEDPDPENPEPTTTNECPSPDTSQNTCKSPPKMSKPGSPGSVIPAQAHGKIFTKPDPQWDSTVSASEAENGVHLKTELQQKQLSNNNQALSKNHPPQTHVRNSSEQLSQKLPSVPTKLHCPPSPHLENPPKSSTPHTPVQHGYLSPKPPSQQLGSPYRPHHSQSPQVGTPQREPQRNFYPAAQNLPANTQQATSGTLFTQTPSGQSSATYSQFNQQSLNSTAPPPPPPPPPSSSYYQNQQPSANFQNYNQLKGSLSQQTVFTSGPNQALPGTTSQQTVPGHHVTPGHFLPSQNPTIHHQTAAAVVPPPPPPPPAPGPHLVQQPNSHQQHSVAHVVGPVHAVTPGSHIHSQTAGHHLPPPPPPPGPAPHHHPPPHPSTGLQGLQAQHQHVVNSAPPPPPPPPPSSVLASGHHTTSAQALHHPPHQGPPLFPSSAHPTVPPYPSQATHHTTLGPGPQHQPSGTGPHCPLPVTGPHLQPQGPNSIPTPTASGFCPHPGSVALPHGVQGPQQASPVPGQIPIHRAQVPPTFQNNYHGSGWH
UniProt Q93009: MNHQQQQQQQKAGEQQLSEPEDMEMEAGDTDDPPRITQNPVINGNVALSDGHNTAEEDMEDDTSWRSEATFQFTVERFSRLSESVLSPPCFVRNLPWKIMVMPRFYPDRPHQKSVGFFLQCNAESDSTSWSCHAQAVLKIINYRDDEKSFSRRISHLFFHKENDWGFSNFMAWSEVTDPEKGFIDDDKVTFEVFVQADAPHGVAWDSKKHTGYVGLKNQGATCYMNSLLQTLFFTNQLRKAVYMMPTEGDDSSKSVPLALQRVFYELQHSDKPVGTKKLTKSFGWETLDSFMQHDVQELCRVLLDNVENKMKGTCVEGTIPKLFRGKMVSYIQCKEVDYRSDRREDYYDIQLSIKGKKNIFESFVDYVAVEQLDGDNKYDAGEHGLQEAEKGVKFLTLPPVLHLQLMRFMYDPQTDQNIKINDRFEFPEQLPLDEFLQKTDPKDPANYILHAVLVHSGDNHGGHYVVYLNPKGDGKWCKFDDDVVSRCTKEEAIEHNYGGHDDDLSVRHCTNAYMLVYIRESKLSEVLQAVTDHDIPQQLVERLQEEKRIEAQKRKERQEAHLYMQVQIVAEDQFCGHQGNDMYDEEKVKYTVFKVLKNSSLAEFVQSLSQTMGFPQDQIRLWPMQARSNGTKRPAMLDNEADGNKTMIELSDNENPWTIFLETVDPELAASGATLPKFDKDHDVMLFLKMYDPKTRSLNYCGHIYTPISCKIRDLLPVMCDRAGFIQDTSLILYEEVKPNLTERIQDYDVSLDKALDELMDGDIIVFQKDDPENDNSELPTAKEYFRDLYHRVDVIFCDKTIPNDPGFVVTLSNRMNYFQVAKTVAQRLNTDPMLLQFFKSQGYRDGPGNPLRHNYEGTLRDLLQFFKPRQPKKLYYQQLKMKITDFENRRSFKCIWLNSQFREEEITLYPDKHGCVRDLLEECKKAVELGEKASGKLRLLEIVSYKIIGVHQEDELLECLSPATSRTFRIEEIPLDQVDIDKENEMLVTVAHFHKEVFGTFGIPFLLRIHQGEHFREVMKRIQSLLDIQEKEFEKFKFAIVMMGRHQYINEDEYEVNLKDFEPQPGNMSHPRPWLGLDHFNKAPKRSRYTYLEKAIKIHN

T1: FLAG-tagged OGT (O-GlcNAc transferase) (UniProt O15294)
T1 sequence: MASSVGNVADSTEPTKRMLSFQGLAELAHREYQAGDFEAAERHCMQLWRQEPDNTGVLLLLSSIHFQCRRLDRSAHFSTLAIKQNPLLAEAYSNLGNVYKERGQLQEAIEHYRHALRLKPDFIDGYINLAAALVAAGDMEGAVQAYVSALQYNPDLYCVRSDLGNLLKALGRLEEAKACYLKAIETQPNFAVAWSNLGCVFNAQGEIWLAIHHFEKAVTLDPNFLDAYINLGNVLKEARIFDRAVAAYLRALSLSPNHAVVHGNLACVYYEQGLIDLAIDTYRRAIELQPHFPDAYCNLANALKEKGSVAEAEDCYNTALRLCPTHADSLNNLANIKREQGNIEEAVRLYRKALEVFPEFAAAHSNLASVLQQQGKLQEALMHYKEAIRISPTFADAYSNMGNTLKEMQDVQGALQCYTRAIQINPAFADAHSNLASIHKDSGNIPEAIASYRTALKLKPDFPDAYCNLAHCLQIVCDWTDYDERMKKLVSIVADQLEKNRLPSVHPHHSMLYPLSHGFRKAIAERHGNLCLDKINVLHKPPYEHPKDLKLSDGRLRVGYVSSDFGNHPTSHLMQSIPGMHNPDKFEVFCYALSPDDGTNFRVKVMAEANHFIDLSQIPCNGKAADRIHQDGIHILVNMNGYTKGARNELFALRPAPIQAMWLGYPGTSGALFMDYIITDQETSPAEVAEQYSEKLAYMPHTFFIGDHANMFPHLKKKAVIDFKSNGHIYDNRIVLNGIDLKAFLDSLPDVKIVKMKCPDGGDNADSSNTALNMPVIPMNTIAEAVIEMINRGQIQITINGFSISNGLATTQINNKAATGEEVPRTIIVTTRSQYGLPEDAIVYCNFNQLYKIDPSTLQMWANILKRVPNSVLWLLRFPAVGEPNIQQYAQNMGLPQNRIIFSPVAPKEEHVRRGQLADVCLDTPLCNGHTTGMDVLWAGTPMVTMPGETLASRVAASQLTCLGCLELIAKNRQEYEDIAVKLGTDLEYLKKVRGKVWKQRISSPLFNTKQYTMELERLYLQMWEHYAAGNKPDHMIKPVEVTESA

B1: V5-tagged OGT (enzyme, UniProt O15294 1-1046)
chain: T1 sequence
B2: FLAG-tagged OGT (O-GlcNAc transferase) (enzyme, UniProt O15294 1-1046)
chain: T1 sequence

Experiments:
3×FLAG-tagged MLL5 [1] = molecular target: 3×FLAG-tagged MLL5 (UniProt Q8IZD2); assay: co-IP; HEK293T co-transfected with two tagged proteins, 48 h; lysis in 1% NP-40, 20 mM HEPES pH 7.5, 20 mM KCl, 150 mM NaCl, 5 mM EDTA; antibody 14 h at 4°C, protein A/G plus agarose; western blot for the tags
[2] = molecular target: T1, FLAG-tagged OGT (O-GlcNAc transferase); assay: as above
3×FLAG-tagged MLL5 [3] = molecular target: 3×FLAG-tagged MLL5 (UniProt Q8IZD2); assay: co-IP; HEK293T co-transfected with three proteins (3×FLAG-MLL5, HA-USP7, V5-OGT); immunoprecipitation with anti-FLAG, anti-HA or anti-V5, western blot
3×FLAG-tagged MLL5 [4] = molecular target: 3×FLAG-tagged MLL5 (UniProt Q8IZD2); assay: SEC; HEK293T co-transfected with MLL5-3×FLAG, OGT-V5 and USP7; anti-FLAG M2 affinity gel, 3×FLAG peptide eluate run on Superdex-200 3.2/300 in lysis buffer; fractions assayed by western blot
[5] = molecular target: HA-tagged USP7 (ubiquitin-specific protease 7) (UniProt Q93009); assay: co-IP; HEK293T co-transfected with three proteins (3×FLAG-MLL5, HA-USP7, V5-OGT); immunoprecipitation with anti-FLAG, anti-HA or anti-V5, western blot
[6] = molecular target: HA-tagged USP7 (ubiquitin-specific protease 7) (UniProt Q93009); assay: co-IP; HEK293T co-transfected with two tagged proteins, 48 h; lysis in 1% NP-40, 20 mM HEPES pH 7.5, 20 mM KCl, 150 mM NaCl, 5 mM EDTA; antibody 14 h at 4°C, protein A/G plus agarose; western blot for the tags

Molecule | binding (3×FLAG-tagged MLL5 [1]) | binding [2] | binding (3×FLAG-tagged MLL5 [3]) | binding (3×FLAG-tagged MLL5 [4]) | binding [5] | binding [6]
Myc-tagged USP7 (from UniProt Q93009 1-1102) (enzyme) | binds | binds | – | – | – | –
HA-tagged USP7 (ubiquitin-specific protease 7) (from UniProt Q93009 1-1102) (enzyme) | binds | – | binds | binds | – | –
B1 | – | – | binds | binds | binds | –
B2 | – | – | – | – | – | binds
